Data source: PubChem BioAssay AID686943 (Drosophila RNAi Screening Center, 2013)
In all, the deposit lists about 23,000 reagents; shown is an unselected part of those that have a named target and a result. 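Extra replicates exist only for a retested subset of genes; insulin dose and duration not given; both raised and lowered dpERK matter.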 Further read-outs or replicates are left out here. No sequences are given here. The record does not give: the amount of reagent, the time to read-out.

- Aim: 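Fly genes whose loss alters ERK activation after insulin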 (primary screen)
- Cells: Drosophila S2R+ haemocyte-like cells expressing YFP-tagged ERK (Rolled)
- Knock-down reagent: long dsRNA against Drosophila genes
- Treatment: insulin stimulation versus unstimulated cells; dose and duration not given
- Measured: 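Per-plate z-scores of phospho-ERK immunostaining normalised to YFP-tagged ERK, measured with and without insulin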
- Scale: replicate 1, z-score of dpERK with insulin: higher = more active ERK per ERK-YFP after insulin

CG10973 [DRSC09813]: replicate 1, z-score of dpERK with insulin = 0.2
CG5539 [DRSC04510]: replicate 1, z-score of dpERK with insulin = 0.26
Ufl1 (UFM1 specific ligase 1) [DRSC12527]: replicate 1, z-score of dpERK with insulin = 0.46
BomS5 (Bomanin Short 5) [DRSC22306]: replicate 1, z-score of dpERK with insulin = 0.32
CG10280 [DRSC12133]: replicate 1, z-score of dpERK with insulin = 0.99
nudE [DRSC09000]: replicate 1, z-score of dpERK with insulin = 1.02
nudE [DRSC10962]: replicate 1, z-score of dpERK with insulin = 0.6
CG5334 [DRSC19941]: replicate 1, z-score of dpERK with insulin = 0.2
Ocho [DRSC11239]: replicate 1, z-score of dpERK with insulin = 0.67
Obp59a (Odorant-binding protein 59a) [DRSC04160]: replicate 1, z-score of dpERK with insulin = -0.16
CG9259 [DRSC03174]: replicate 1, z-score of dpERK with insulin = 0.1
myo (myoglianin) [DRSC17174]: replicate 1, z-score of dpERK with insulin = -0.28
